From publication doi:10.1101/2025.09.09.675182
These are yes or no findings as the source states them, for the method shown. In cells and extracts the contact can be indirect. Some binding calls cover weakened binding; strength is not graded here. For some assays here: Sequences can lack the tags named with a protein. One block for each molecule: values may come before it.

Sequences of proteins named here, by UniProt entry; tags and fusion partners are left off.
UniProt Q9ULW0: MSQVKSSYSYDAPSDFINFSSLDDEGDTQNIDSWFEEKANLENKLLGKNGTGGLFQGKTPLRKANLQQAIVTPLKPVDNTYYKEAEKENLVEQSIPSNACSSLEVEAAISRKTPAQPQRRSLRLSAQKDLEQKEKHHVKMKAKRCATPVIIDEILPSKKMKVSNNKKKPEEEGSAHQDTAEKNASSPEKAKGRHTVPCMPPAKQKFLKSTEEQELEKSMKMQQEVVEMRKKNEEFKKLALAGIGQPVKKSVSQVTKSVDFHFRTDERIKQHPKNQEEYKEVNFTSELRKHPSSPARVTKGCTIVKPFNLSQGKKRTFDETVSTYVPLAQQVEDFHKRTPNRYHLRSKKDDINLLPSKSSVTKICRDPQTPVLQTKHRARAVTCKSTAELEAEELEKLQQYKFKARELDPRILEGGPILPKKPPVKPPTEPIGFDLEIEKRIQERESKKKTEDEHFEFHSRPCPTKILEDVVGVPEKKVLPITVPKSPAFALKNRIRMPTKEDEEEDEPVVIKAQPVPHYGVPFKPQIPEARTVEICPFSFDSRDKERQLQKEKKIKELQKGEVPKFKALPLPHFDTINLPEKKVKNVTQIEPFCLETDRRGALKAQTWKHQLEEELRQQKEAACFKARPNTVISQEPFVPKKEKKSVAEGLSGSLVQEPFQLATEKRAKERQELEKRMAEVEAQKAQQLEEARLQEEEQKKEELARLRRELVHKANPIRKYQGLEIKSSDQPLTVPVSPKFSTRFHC

Assays:
[1] = biological target: T1, His-mmCKAP2-GFP-Strep fragment, alpha-helical bundle (346-549) (mouse) (UniProt Q3V1H1); assay: pull-down
T1 sequence: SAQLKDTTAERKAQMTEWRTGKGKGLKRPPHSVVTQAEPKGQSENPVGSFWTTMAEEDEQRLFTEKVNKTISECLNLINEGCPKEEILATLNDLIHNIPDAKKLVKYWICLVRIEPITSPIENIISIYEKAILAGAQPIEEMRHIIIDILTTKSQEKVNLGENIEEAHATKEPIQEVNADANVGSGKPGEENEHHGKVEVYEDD

[2] = biological target: T2, His-mmCKAP2-GFP-Strep fragment, C-terminus (550-664) (mouse) (UniProt Q3V1H1); assay: pull-down
T2 sequence: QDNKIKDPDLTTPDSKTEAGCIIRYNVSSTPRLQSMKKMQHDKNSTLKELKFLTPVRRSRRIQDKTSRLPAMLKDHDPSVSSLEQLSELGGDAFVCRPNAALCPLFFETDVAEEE

[3] = biological target: T3, His-mmCKAP2-GFP-Strep fragment, N-terminal alpha-helical domain (1-60) (mouse) (UniProt Q3V1H1); assay: pull-down
T3 sequence: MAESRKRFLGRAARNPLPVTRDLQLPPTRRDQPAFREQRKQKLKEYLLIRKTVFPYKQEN

[4] = biological target: T4, Cytoskeleton Associated Protein-2 (CKAP2) (human (endogenous in RPE1)) (UniProt Q8WWK9); assay: co-IP
T4 sequence: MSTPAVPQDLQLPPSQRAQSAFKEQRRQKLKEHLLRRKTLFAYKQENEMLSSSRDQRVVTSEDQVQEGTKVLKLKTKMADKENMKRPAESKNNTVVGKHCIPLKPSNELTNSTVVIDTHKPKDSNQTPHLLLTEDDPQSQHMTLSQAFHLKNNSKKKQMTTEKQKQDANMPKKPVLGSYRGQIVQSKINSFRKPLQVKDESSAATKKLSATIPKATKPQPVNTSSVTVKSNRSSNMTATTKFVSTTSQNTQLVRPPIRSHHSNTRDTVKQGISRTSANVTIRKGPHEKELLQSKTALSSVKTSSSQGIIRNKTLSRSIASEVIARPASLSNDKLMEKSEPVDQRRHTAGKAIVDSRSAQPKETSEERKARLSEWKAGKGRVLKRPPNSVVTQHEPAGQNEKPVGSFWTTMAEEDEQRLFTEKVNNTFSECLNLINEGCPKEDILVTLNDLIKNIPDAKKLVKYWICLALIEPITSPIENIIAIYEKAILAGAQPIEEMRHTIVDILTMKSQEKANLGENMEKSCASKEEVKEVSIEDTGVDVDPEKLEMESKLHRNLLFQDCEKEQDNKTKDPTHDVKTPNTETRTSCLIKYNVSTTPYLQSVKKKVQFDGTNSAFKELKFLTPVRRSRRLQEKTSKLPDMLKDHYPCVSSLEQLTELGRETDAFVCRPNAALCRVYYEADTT

binding [1]: no binding
binding [2]: binds
binding [3]: binds
binding [4]: binds
Molecule: TPX2 (from UniProt Q9ULW0 1-747)

binding [1]: no binding
B1: Aurora Kinase A (enzyme, UniProt O14965 1-403)
chain: MDRSKENCISGPVKATAPVGGPKRVLVTQQFPCQNPLPVNSGQAQRVLCPSNSSQRIPLQAQKLVSSHKPVQNQKQKQLQATSVPHPVSRPLNNTQKSKQPLPSAPENNPEEELASKQKNEESKKRQWALEDFEIGRPLGKGKFGNVYLAREKQSKFILALKVLFKAQLEKAGVEHQLRREVEIQSHLRHPNILRLYGYFHDATRVYLILEYAPLGTVYRELQKLSKFDEQRTATYITELANALSYCHSKRVIHRDIKPENLLLGSAGELKIADFGWSVHAPSSRRTTLCGTLDYLPPEMIEGRMHDEKVDLWSLGVLCYEFLVGKPPFEANTYQETYKRISRVEFTFPDFVTEGARDLISRLLKHNPSQRPMLREVLEHPWITANSSKPSNCQNKESASKQS
